Data as given in patent publication US20240166733A1.
No constants are given. Whether binding was seen depends on the method and setting. Some results given as binding are weak or reduced against the parent protein; the word gives no strength.

What was measured:
[1] = biological target: human A-FABP recombinant protein (human) (UniProt P15090); experiment: ELISA, FABP coated on plate, 6H2 at 1 µg/mL, OD450
[2] = biological target: T1, mouse A-FABP recombinant protein (mouse) (UniProt P04117); experiment: ELISA, FABP coated on plate, 6H2 at 1 µg/mL, OD450
T1 sequence (looked up): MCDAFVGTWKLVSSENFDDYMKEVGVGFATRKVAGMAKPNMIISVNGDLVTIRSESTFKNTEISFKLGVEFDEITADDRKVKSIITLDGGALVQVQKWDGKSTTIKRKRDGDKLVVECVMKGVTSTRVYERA

[3] = biological target: T1, mouse A-FABP recombinant protein (mouse); experiment: ELISA of serum A-FABP in MCAO mice treated with 6H2 or mouse IgG (binding inferred)

binding [1]: binds
binding [2]: binds
binding [3]: binds
B1: A-FABP neutralizing monoclonal antibody 6H2 (antibody, V domains shown)
VH: VKLQESGPELVKPGASVKIPCKASGYTFTDYNMDWVRQSRGKSLEWIGDINPYNGDTIYNQNFKGKATLTVDKSSTTAYLELRSLTSEDTAVYYCASGYGFWGQGTTVTVSS
VL: DIVMTQAPLSLPVSLGAQASISCRSSQSLVYINGNTYLHWYLQKPGQSPKLLIYKVSNRFSGVPDRFSGSGSGTDFTLKISRVEAEDLGVYFCSQSTHVPYTFGGGTKLEIK
